# Data taken from publication PMC6367212.
# Protein sequences, listed by entry. Tags and fused reporters are not part of them. Lines headed by an entry give the natural chain unless they say otherwise; changes in a name come on top.
# UniProt Q16665: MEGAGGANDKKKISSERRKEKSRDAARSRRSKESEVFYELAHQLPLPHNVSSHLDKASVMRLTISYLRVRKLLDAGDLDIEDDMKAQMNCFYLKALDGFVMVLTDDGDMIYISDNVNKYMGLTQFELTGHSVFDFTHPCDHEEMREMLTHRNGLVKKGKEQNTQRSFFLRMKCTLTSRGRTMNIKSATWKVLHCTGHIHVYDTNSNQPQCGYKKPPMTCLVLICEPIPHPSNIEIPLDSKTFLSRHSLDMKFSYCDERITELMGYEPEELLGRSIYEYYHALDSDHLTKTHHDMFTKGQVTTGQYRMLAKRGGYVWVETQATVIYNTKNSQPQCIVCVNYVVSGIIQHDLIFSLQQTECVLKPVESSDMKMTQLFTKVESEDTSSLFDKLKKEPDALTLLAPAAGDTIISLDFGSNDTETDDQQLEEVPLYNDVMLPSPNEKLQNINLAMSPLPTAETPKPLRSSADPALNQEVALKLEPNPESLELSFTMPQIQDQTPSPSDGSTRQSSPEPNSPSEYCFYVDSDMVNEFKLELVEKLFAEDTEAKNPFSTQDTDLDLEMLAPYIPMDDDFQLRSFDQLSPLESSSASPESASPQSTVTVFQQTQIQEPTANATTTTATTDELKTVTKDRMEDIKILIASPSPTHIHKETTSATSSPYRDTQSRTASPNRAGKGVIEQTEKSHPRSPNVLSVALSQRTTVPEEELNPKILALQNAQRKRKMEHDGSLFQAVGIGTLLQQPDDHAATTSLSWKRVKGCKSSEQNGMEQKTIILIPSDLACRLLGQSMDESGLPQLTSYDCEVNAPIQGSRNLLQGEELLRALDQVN
# UniProt P61073: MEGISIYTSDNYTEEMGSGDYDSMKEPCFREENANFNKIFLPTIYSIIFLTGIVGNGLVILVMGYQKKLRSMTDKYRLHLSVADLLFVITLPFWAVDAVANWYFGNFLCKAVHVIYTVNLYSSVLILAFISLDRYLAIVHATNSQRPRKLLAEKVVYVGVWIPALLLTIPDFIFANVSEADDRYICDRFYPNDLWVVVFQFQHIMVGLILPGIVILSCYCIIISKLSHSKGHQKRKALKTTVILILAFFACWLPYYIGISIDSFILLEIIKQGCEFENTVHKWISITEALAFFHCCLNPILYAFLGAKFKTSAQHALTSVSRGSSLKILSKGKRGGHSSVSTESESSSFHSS
# No constants are given. Whether binding was seen depends on the method and setting. In cells and extracts the contact can be indirect. Some binding calls cover weakened binding; strength is not graded here.
# Tests used:
# [1] = molecular target: FLAG-tagged HIF-1α (hypoxia-inducible factor-1α) (UniProt Q16665); experiment: co-IP; Flag antibody covalently coupled to amine-reactive resin (Pierce Co-IP kit) on lysate of ACHN cells overexpressing FLAG-tagged HIF-1α and CXCR4-EGFP, CXCR4-mNLS-EGFP or EGFP; western blot
# [2] = molecular target: CXCR4-mNLS-EGFP (CXCR4 with the nuclear localization sequence 146-RPRK-149 mutated to AAAA, tagged with EGFP at the C-terminus) (human) (UniProt P61073); experiment: co-IP; GFP-Trap A beads (ChromoTek) on lysate of ACHN cells overexpressing FLAG-tagged HIF-1α and CXCR4-EGFP, CXCR4-mNLS-EGFP or EGFP; precipitates analysed by western blot
# [3] = molecular target: CXCR4-EGFP (CXC chemokine receptor 4 tagged with enhanced green fluorescent protein at the C-terminus) (human) (UniProt P61073); experiment: as above
# [4] = molecular target: CXCR4 (endogenous, ACHN cells) (human (endogenous in ACHN)) (UniProt P61073); experiment: proximity ligation; Duolink assay on fixed ACHN cells, serum-starved 12 h, without or with CXCL12 (200 ng/ml, 24 h); rabbit anti-CXCR4 and mouse anti-HIF-1α antibodies with PLA probes; signal when the distance is less than 40 nm
substance,measurement,setting,value
CXCR4-EGFP (CXC chemokine receptor 4 tagged with enhanced green fluorescent protein at the C-terminus) (from UniProt P61073-1 1-352),binding,[1],binds
"CXCR4-mNLS-EGFP (CXCR4 with the nuclear localization sequence 146-RPRK-149 mutated to AAAA, tagged with EGFP at the C-terminus) (from UniProt P61073-1 1-352) (receptor)",binding,[1],binds
FLAG-tagged HIF-1α (hypoxia-inducible factor-1α) (from UniProt Q16665 1-826),binding,[2],binds
same,binding,[3],binds
"HIF-1α (endogenous, ACHN cells) (from UniProt Q16665 1-826)",binding,[4],binds
